According to patent US7098306B2, “Method and compositions for treating hepatocellular cancer” (The Regents of the University of California, priority 1997, dated 2006):

system: HepG2 cells; test: HPLC and MALDI-TOF identification of peptides acid-eluted from hepatocellular carcinoma cells; design: species or system human; settings: MALDI-TOF of HPLC fractions; absent from Hep3B

| Sequence | identification of peptide in peptide pool eluted from HepG2 cells |
| --- | --- |
| GLSPNLNRFL (listed as Homo sapiens) [hAFP325-334, dominant HLA-A*0201 peptide derived from human alpha fetoprotein] | peaks were identified |
| GVALQTMKQ (listed as Homo sapiens) [hAFP542-550, dominant HLA-A*0201 peptide derived from human alpha fetoprotein] | peaks were identified |
| PLFQVPEPV (listed as Homo sapiens) [hAFP137-145, dominant HLA-A*0201 peptide derived from human alpha fetoprotein] | not possible to document the presence |
